Some of the results follow. Values are raw readings; no control value is given beside them.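 First-pass screen: polymyxin B was added at a level that permeabilizes the Salmonella outer membrane while sparing the inner membrane. DMSO wells, with and without polymyxin B, defined maximum growth. Because plates differed from one another, each plate's data were ranked separately and the compounds with the lowest OD600 were carried forward as hits.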
Test system: Salmonella enterica serovar Typhimurium SL1344
Experiment: bacterial growth OD600 after 18 h with compound and polymyxin B; higher = more bacterial growth (less inhibition)
Settings: 50 µM, Mueller-Hinton broth

Row | SMILES | bacterial growth OD600 (polymyxin B 1 µg/mL) | bacterial growth OD600 (polymyxin B 0.75 µg/mL)
1 | COc1ccc(Cn2cc(C(=O)N(Cc3nccn3C)C(C)C)nn2)cc1 | 1.08 | 
2 | Cc1nc2ccccc2n1Cc1cc(C(=O)N2C[C@@H](C)O[C@@H](C)C2)no1 | 0.895 | 
3 | COC(=O)c1ccc(N2CCN(C(=O)Cn3nnnc3CN(C)C(C)C)CC2)cc1 |  | 0.864
4 | CCC1CN(Cc2cccn2-c2ncccn2)Cc2ccc(Cl)cc2O1 (stereo unspecified) |  | 0.687
5 | COc1ccc(OC)c(Cc2nnc(CCC(=O)NCc3csc(C(C)C)n3)o2)c1 | 1.01 | 
6 | COc1ccc(-n2cc(CNCc3cnn(C)c3)c(-c3cccc(F)c3)n2)cc1 | 0.812 | 
7 | COc1ccccc1CN(C)C(=O)CCn1nnnc1CN1CCOCC1 | 0.861 | 
8 | CCNC(=O)c1cn(CCc2ccccc2)cc(C(=O)N2CCC(c3ccccc3)CC2)c1=O |  | 0.888
9 | COc1ccc(OCc2cc(C(=O)N(Cc3nccn3C)C(C)C)no2)c2ccccc12 | 0.774 | 
10 | Cc1cccc(-c2cnc(-c3ccncc3)nc2C2CCN(C(=O)c3ccc(F)c(F)c3)CC2)c1 |  | 0.011
11 | CC(C)Oc1cccc(C(=O)C2CCCN(C(=O)c3ccsc3)C2)c1 (stereo unspecified) | 0.905 | 
12 | O=C(c1coc(COc2ccc(F)cc2Cl)n1)N1CCCCCC1 | 0.671 | 
13 | COCCN1CCN(C(=O)c2sc3ncnc(NCCc4ccccc4OC)c3c2C)CC1 |  | 0.853
14 | O=C(C1CC(Cc2cccc(F)c2)=NO1)N1CCC(C(O)c2cccs2)CC1 (stereo unspecified) |  | 0.773
15 | C=C(C)CN(CC)C(=O)C1CCC(=O)N(CCCN2CCCC2=O)C1 (stereo unspecified) | 0.789 | 
16 | CC(=O)NCC1CCCN(C(=O)c2ccc3nc(Cc4cccc(Cl)c4)oc3c2)C1 (stereo unspecified) | 1.13 | 
17 | Fc1ccc(CN2CCCC3(CCN(C4CCC4)C3)C2)cc1 (stereo unspecified) |  | 0.752
18 | CC1(C)Cc2c(cnn2-c2cccc(F)c2)C(NC(=O)CCc2cnccn2)C1 (stereo unspecified) | 0.209 | 
19 | COc1cccc2c1OCC(CN1CCC(n3nccc3NC(=O)C3CC3)CC1)=C2 | 1.14 | 
20 | Cc1nc(CCNc2nc3nonc3nc2N2CCCC2)sc1C |  | 0.803
21 | COc1cccc(-c2cnc(-c3ccncc3)nc2C2CCN(Cc3ccccc3OC)CC2)c1 |  | 0.821

From compound 11 as far as 12, copied from above:
Row | SMILES | bacterial growth OD600 (polymyxin B 1 µg/mL) | bacterial growth OD600 (polymyxin B 0.75 µg/mL)
11 | CC(C)Oc1cccc(C(=O)C2CCCN(C(=O)c3ccsc3)C2)c1 (stereo unspecified) | 0.905 | 
12 | O=C(c1coc(COc2ccc(F)cc2Cl)n1)N1CCCCCC1 | 0.671 | 
